# Results reported in publication PMC7819943, “Rice protein-binding microarrays: a tool to detect cis-acting elements near promoter regions in rice”.
# The other results are listed elsewhere or left out.
# Molecular target: T1, OsSMF1 (Oryza sativa, UniProt Q6ZLB0 1-436)
# T1 sequence: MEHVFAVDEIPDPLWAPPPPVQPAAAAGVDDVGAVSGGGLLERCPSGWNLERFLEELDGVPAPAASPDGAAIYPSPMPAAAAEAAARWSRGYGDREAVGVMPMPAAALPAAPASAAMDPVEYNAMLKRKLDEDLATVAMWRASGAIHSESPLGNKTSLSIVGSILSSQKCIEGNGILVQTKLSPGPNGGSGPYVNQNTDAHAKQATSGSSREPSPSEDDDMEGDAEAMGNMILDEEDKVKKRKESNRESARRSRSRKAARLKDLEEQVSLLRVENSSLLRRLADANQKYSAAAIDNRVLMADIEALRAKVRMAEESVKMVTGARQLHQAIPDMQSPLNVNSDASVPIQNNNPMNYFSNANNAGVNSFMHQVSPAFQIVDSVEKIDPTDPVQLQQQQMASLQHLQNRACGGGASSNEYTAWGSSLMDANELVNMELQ
# Assay: protein-binding microarray (RPBM); PBS, 2% BSA, 51.3 ng/ul salmon testes DNA, 50 uM zinc acetate, 200 nM TF, 25 C, 1 h; high values mean tight binding
# Settings: protein: recombinant; tags: N-terminal polyhistidine and DsRed monomer fusion (pET32a); chain copies: 2; label: CyDye5-dUTP incorporated in the synthesized complementary strand; 3' TTTTT single-stranded linker to array surface; dsDNA, one strand shown
# Outline: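 For the binding signal, per-feature fluorescence intensity was read in arbitrary units on an Axon 4000B scanner. Before scanning, a 2% BSA-blocked custom Agilent array made double-stranded with Cy5-dUTP was washed after 1 h at 25 °C with 200 nM protein and 50 µM zinc acetate. The proteins were Ni–NTA-purified transcription factors with N-terminal polyhistidine and DsRed fusions, expressed in E. coli BL21-CodonPlus.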
row,Sequence,binding signal
1,AAATTTAACTTTTACATCGCGTCCCACCGTCGCCGCGCTCCGGAGTCACCTAGTGCAG,3430 fluorescence intensity (a.u.)
2,TAGTATCAGCTGCTGACAGATAGCTCGAGAGTGTACCTTACGGAGTCACCTAGTGCAG,3890 fluorescence intensity (a.u.)
3,AGGTTGAGGTTCTCCCTCCACGTCCTCTTGGGTGGCTTCTCGGAGTCACCTAGTGCAG,4270 fluorescence intensity (a.u.)
4,CATCATCACTGCTCGAGTCGAGAGTCGAGTGTCGAGACATCGGAGTCACCTAGTGCAG,9360 fluorescence intensity (a.u.)
5,TTCGATATATTACGCCCAAGGGGAGCAAACACGTATACTGCGGAGTCACCTAGTGCAG,27900 fluorescence intensity (a.u.)
6,AAAACGATTACACTATACACTATTGAGAATGAGTTCTTTACGGAGTCACCTAGTGCAG,29500 fluorescence intensity (a.u.)
7,GAAAGACTTGCAAGTTGCCATCAATGGCATCGAAAGATGCCGGAGTCACCTAGTGCAG,7840 fluorescence intensity (a.u.)
8,GCTCAATCCCCGACCACCACGTGGCATCCTCGATGCCTCGCGGAGTCACCTAGTGCAG,24000 fluorescence intensity (a.u.)
9,GATGAGGCTCCGAGTCGTCTGATGGCCACGTTTATCGGTTCGGAGTCACCTAGTGCAG,4430 fluorescence intensity (a.u.)
10,GCGTCAAACTGCTACGCGTGATTCTTAATTCTTCTTGCTCCGGAGTCACCTAGTGCAG,30900 fluorescence intensity (a.u.)
11,AGCGCTGGGTACACCCACGACGGGCCTTCCGGACGCGGTGCGGAGTCACCTAGTGCAG,19000 fluorescence intensity (a.u.)
12,ATCTAGCGACGAGAAGAGAGGAAGGGAGGGAGGCGTCACGCGGAGTCACCTAGTGCAG,3830 fluorescence intensity (a.u.)
13,AGCGATCTCTTTAGTAGGTATGTGCCATGTCACCGTTCACCGGAGTCACCTAGTGCAG,15900 fluorescence intensity (a.u.)
14,GCCGCAAATCCAGGCCCCAAGCGGGATGCCACGCCGAGCCCGGAGTCACCTAGTGCAG,3530 fluorescence intensity (a.u.)
15,GTTCAATTCCTGCTGGATGCACGTGAACCGGAACGTTCCACGGAGTCACCTAGTGCAG,52000 fluorescence intensity (a.u.)
16,CAGCAGCAGCAGCAGCCGCCGCCTCCGTCCGTCCGTCCGTCGGAGTCACCTAGTGCAG,3230 fluorescence intensity (a.u.)
17,GCCCATATAGCTTCTGCGAGCCATGTGGCAAGTATCAAAGCGGAGTCACCTAGTGCAG,3630 fluorescence intensity (a.u.)
18,TTTATGATAACTTTGAGTCATATCATTTTGGTAAGTCCTACGGAGTCACCTAGTGCAG,3140 fluorescence intensity (a.u.)
19,AAAGTTTCTGTCCAAATTGGACAGTTGTGACAGTCATCACCGGAGTCACCTAGTGCAG,3670 fluorescence intensity (a.u.)
20,TCCAATTCACAATTATAAATGATGTGGTGGCACCATGGCACGGAGTCACCTAGTGCAG,3310 fluorescence intensity (a.u.)
21,TGCTCCAGCTTATGATTGCCACCTTCCAATTGAATGCCGGCGGAGTCACCTAGTGCAG,24400 fluorescence intensity (a.u.)
22,ATCTTTTGGAGATGTTTATAGTGATATAGTGCACGTGTGTCGGAGTCACCTAGTGCAG,3700 fluorescence intensity (a.u.)
23,ACATCCCTTGGTCATGAACTCATGATCGAGTGGTCCAAATCGGAGTCACCTAGTGCAG,4310 fluorescence intensity (a.u.)
24,TCGTGCTCCTCGCCGTCACACTCGCCGCCGCCGCCGCCACCGGAGTCACCTAGTGCAG,3520 fluorescence intensity (a.u.)
25,GATTCTTCCGGAGTTCGTGACCACGTCAGAGTTTTCCGCCCGGAGTCACCTAGTGCAG,11700 fluorescence intensity (a.u.)
26,GGTTATAGGGCTTGTTTGGTTCTTTACCCTACCAATTCATCGGAGTCACCTAGTGCAG,3220 fluorescence intensity (a.u.)
27,CGGACAAAGGCCACGTCAGATGGCCCTGTAGGTCACAGGCCGGAGTCACCTAGTGCAG,12100 fluorescence intensity (a.u.)

row,Sequence,binding signal
1,CTCGATACAGAGTGAGCGGGGTATGGCAATGACGAGCTATCGGAGTCACCTAGTGCAG,3160 fluorescence intensity (a.u.)
2,TTCAGCTAGAAAATAATAAAATAATGCGTTCGGTGTCATACGGAGTCACCTAGTGCAG,3920 fluorescence intensity (a.u.)
3,GTGTGTGCTGTGGTGGAGAGGAGAAAGGGAGGAAGAAGAGCGGAGTCACCTAGTGCAG,3560 fluorescence intensity (a.u.)
4,TGTCGCTACCCTAGAGGTCGAGGCCAGGAAGGTTAGATCCCGGAGTCACCTAGTGCAG,3560 fluorescence intensity (a.u.)
5,AAAGTCAATATAGGAATACAATTTAGAAGTAACTTAAATTCGGAGTCACCTAGTGCAG,25600 fluorescence intensity (a.u.)
6,TGCTACCAACGGCCGGTATCAATCCATGTCATGTCTGTCACGGAGTCACCTAGTGCAG,4330 fluorescence intensity (a.u.)
7,CTGCCATCTGGGCCCCACGCCTCCCGGCCCCACATGCCAGCGGAGTCACCTAGTGCAG,4510 fluorescence intensity (a.u.)
8,GGAACATAACAAAGTGGGACTTATATATCAGTGACTCAATCGGAGTCACCTAGTGCAG,5790 fluorescence intensity (a.u.)
9,CAAAGGACACGTACACACCAAGAACCAGGACACTAGTAGGCGGAGTCACCTAGTGCAG,5470 fluorescence intensity (a.u.)
10,CGCACGGTGCCCTTGACGTCCACGTCGACCGCGACCACCACGGAGTCACCTAGTGCAG,11800 fluorescence intensity (a.u.)
11,GGCGGCGTCGGGGAAGGAAGAGGGCCGGGGCACCAGCGGCCGGAGTCACCTAGTGCAG,3270 fluorescence intensity (a.u.)
12,TAGTAGTGTATTTAAATAGATAATAAGTAGAATGACTCATCGGAGTCACCTAGTGCAG,5410 fluorescence intensity (a.u.)
13,GTCCAGTACTCCAGTCATGTACCAACCCTTCGTCCCAAGTCGGAGTCACCTAGTGCAG,3220 fluorescence intensity (a.u.)
14,TAGCGAGCTAGCGTGTACACATTTCAATTATATATGGTGCCGGAGTCACCTAGTGCAG,3690 fluorescence intensity (a.u.)
15,CCCCGGGATATGATGGCAATCCCTACGTCACCGGTGACAGCGGAGTCACCTAGTGCAG,6790 fluorescence intensity (a.u.)
16,GCGTGTGCATCTGCCATGTAATCCAAAATATAGCCATGAACGGAGTCACCTAGTGCAG,3660 fluorescence intensity (a.u.)
17,CAAGGTAAGTTAAGTAATGAAGAGGAATAGATGAGAATTGCGGAGTCACCTAGTGCAG,3210 fluorescence intensity (a.u.)
18,GGCTAGAGGGACGGCGCTAACATGTTTGTCATCATCATATCGGAGTCACCTAGTGCAG,4010 fluorescence intensity (a.u.)
19,CGGTTTGTTCACCCAATCTGGTTCGAGCTGACTCGTGTGTCGGAGTCACCTAGTGCAG,4410 fluorescence intensity (a.u.)
20,AATACTGCCTTCATTGTGGGGTGTAACTGGACGTGTCAGACGGAGTCACCTAGTGCAG,4500 fluorescence intensity (a.u.)
21,ACCACAATGAAAGTTTCAGTTCATATCATATGGCATACTACGGAGTCACCTAGTGCAG,3250 fluorescence intensity (a.u.)
22,CGCCCCACCACTCGTGACGCCGACGTACGCTTTGCTCTCTCGGAGTCACCTAGTGCAG,4470 fluorescence intensity (a.u.)
23,GCATTGGGAGCCCCTGCCTGCCCACCTGTCCTCCCCAGAGCGGAGTCACCTAGTGCAG,3270 fluorescence intensity (a.u.)
24,AGAGGAACCAATCGTACACGCTGGCGCATAGAAGCTTCCTCGGAGTCACCTAGTGCAG,4070 fluorescence intensity (a.u.)
25,GGTGTAGTGACCTTGCACTGACGTGAATAATCGCAGAGCGCGGAGTCACCTAGTGCAG,5670 fluorescence intensity (a.u.)
26,TGAGCTCGTAACGGACCTGGCGACGTCAGCGTCCCACTCCCGGAGTCACCTAGTGCAG,10700 fluorescence intensity (a.u.)
27,TGGGCCTAATTTTCATCATCAACGTAGGCTAGTTATTAGGCGGAGTCACCTAGTGCAG,3940 fluorescence intensity (a.u.)

# Taken from above.
# Value of AAAGTCAATATAGGAATACAATTTAGAAGTAACTTAAATTCGGAGTCACCTAGTGCAG under binding signal: 25600 fluorescence intensity (a.u.)
# Value of CGGTTTGTTCACCCAATCTGGTTCGAGCTGACTCGTGTGTCGGAGTCACCTAGTGCAG under binding signal: 4410 fluorescence intensity (a.u.)
